Earlier results in patent US20070238696A1, “Dosage unit for cardioprotection” (priority 2000, published 2007).
At least one structure is not confirmed: it was looked up by name or label, or the drawing left a doubt.

System: plasma LDL
Details: in vivo

CC(C)n1c(/C=C/C(O)CC(O)CC(=O)O)c(-c2ccc(F)cc2)c2ccccc21 (stereo not shown) [fluvastatin]
Maximal plasma LDL reduction: 25%
